# Data reported in the supplement of paper PMC4635364.
# Where a name gives a salt, the structure may show the parent alone. The list shows a part of the results. This data set is noisy: repeats of one test often differ as much as different tests do.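 Cells: ReNCell VM human fetal ventral-midbrain neural progenitors, differentiated mitogen-free. Blinded raters compared doublecortin-stained (early neurons) or tyrosine hydroxylase-stained (dopaminergic neurons) images with untreated wells, where 0 means no change. After repeats and both raters were averaged, compounds scoring 2 or above became hits for retesting.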
# How the values were obtained:
# ReNCell VM [1] = test: neuronal differentiation score (DCX+ cell fraction vs untreated, manual image score) (score (-3 to 3)); higher = more neuronal differentiation; settings: 2 uM, 2 weeks
# ReNCell VM [2] = test: dopaminergic neuron differentiation score (TH+ cell fraction vs untreated, manual image score) (score (0 to 3)); higher = more TH+ dopaminergic neuron differentiation; settings: 2 uM, 4 weeks, BDNF 10 ng/ml + GDNF 10 ng/ml
smiles,measurement,setting,value
O=C(CCCN1CCN(c2ccccn2)CC1)c1ccc(F)cc1 [Azaperone],neuronal differentiation score,ReNCell VM [1]; library: Prestwick,inactive: 0
same,dopaminergic neuron differentiation score,ReNCell VM [2]; library: Prestwick,inactive: 0
COc1ccc(CC(C)NCC(O)c2ccc(O)c(NC=O)c2)cc1 (stereo not drawn) [Formoterol fumarate],neuronal differentiation score,ReNCell VM [1]; library: Prestwick,inactive: 0
same,dopaminergic neuron differentiation score,ReNCell VM [2]; library: Prestwick,inactive: 0
O=C(O)[C@@H]1CCCN1 [L-Proline],neuronal differentiation score,ReNCell VM [1]; library: Phytochemical,inactive: 0
same,dopaminergic neuron differentiation score,ReNCell VM [2]; library: Phytochemical,inactive: 0
CC(C)n1nnc2cc(C(=O)O)ccc21,neuronal differentiation score,ReNCell VM [1]; library: Tocriscreen,inactive: 0
same,dopaminergic neuron differentiation score,ReNCell VM [2]; library: Tocriscreen,inactive: 0
NC(=O)N/N=C/c1ccc(Oc2ccc(F)cc2)cc1,neuronal differentiation score,ReNCell VM [1]; library: Tocriscreen,inactive: 0
same,dopaminergic neuron differentiation score,ReNCell VM [2]; library: Tocriscreen,inactive: 0
Nc1nccc2c1ncn2[C@@H]1O[C@H](CO)[C@@H](O)[C@H]1O [3-deazaadenosine],neuronal differentiation score,ReNCell VM [1]; library: LOPAC,inactive: -1
same,dopaminergic neuron differentiation score,ReNCell VM [2]; library: LOPAC,inactive: 0
CCOc1ccc(NC(C)=O)cc1 [Phenacetin],neuronal differentiation score,ReNCell VM [1]; library: Prestwick,inactive: 0
same,dopaminergic neuron differentiation score,ReNCell VM [2]; library: Prestwick,inactive: 0
FC(F)(F)COCC(F)(F)F,neuronal differentiation score,ReNCell VM [1]; library: Spectrum,inactive: 0
same,dopaminergic neuron differentiation score,ReNCell VM [2]; library: Spectrum,inactive: 0
COC(=O)/C=C/C(=O)OC,neuronal differentiation score,ReNCell VM [1]; library: Spectrum,inactive: -1
same,dopaminergic neuron differentiation score,ReNCell VM [2]; library: Spectrum,inactive: 0
COc1ccc([C@@H](C)C(=O)c2ccc(O)cc2O)cc1,neuronal differentiation score,ReNCell VM [1]; library: Spectrum,inactive: 0
same,dopaminergic neuron differentiation score,ReNCell VM [2]; library: Spectrum,inactive: 1
CN1CCC(=C2c3ccccc3C=Cc3ccccc32)CC1,neuronal differentiation score,ReNCell VM [1]; library: Spectrum,inactive: 0
same,dopaminergic neuron differentiation score,ReNCell VM [2]; library: Spectrum,inactive: 0
COc1cc2c(cc1OC)-c1cc3ccc(OC)c(OC)c3c[n+]1CC2,neuronal differentiation score,ReNCell VM [1]; library: Spectrum,inactive: 0
same,dopaminergic neuron differentiation score,ReNCell VM [2]; library: Spectrum,inactive: 0
C[C@H]1O[C@@H](O[C@H]2[C@@H](O)C[C@H](O[C@H]3[C@@H](O)C[C@H](O[C@H]4CC[C@@]5(C)[C@H](CC[C@@H]6[C@@H]5CC[C@]5(C)[C@@H](C7=CC(=O)OC7)CC[C@]65O)C4)O[C@@H]3C)O[C@@H]2C)C[C@H](O)[C@@H]1O,neuronal differentiation score,ReNCell VM [1]; library: Spectrum,inactive: 0
same,dopaminergic neuron differentiation score,ReNCell VM [2]; library: Spectrum,inactive: 0
O=C(O)CN(CCN(CC(=O)O)CC(=O)O)CCN(CC(=O)O)CC(=O)O,neuronal differentiation score,ReNCell VM [1]; library: Spectrum,inactive: 1
same,dopaminergic neuron differentiation score,ReNCell VM [2]; library: Spectrum,inactive: 0
CC[C@H]1OC(=O)C[C@@H](O)[C@H](C)[C@@H](O[C@@H]2O[C@H](C)[C@@H](O[C@H]3C[C@@](C)(O)[C@@H](O)[C@H](C)O3)[C@H](N(C)C)[C@H]2O)[C@@H](CC=O)C[C@@H](C)C(=O)/C=C/C(C)=C/[C@@H]1CO[C@@H]1O[C@H](C)[C@@H](O)[C@@H](OC)[C@H]1OC,neuronal differentiation score,ReNCell VM [1]; library: Spectrum,inactive: 0
same,dopaminergic neuron differentiation score,ReNCell VM [2]; library: Spectrum,inactive: 0
CCCOC(=O)c1c(-c2ccccc2)nc(CC)c(C(=O)SCC)c1CCC,neuronal differentiation score,ReNCell VM [1]; library: LOPAC,inactive: 0
same,dopaminergic neuron differentiation score,ReNCell VM [2]; library: LOPAC,inactive: 0
O=C(c1ccc(OCCN2CCCCC2)cc1)c1c(-c2ccc(O)cc2)sc2cc(O)ccc12,neuronal differentiation score,ReNCell VM [1]; library: Spectrum,inactive: 0
same,dopaminergic neuron differentiation score,ReNCell VM [2]; library: Spectrum,inactive: 0
CC(O)Cn1cnc2c1c(=O)n(C)c(=O)n2C (stereo not drawn) [Proxyphylline],neuronal differentiation score,ReNCell VM [1]; library: Phytochemical,inactive: 0
same,dopaminergic neuron differentiation score,ReNCell VM [2]; library: Phytochemical,inactive: 0
N#C/C(=C\c1ccc(O)c(O)c1)C(=O)Nc1ccccc1,neuronal differentiation score,ReNCell VM [1]; library: Tocriscreen,inactive: 0
same,dopaminergic neuron differentiation score,ReNCell VM [2]; library: Tocriscreen,inactive: 1
COc1cc([S+](C)[O-])ccc1-c1nc2cccnc2[nH]1 (stereo not drawn) [Sulmazole],neuronal differentiation score,ReNCell VM [1]; library: Prestwick,inactive: 0
same,dopaminergic neuron differentiation score,ReNCell VM [2]; library: Prestwick,inactive: 0
Cc1cc(/C(=C/Nc2ccc(Cl)cc2)C(=O)Nc2ccc(Cl)cc2)on1,neuronal differentiation score,ReNCell VM [1]; library: Tocriscreen,inactive: 0
same,dopaminergic neuron differentiation score,ReNCell VM [2]; library: Tocriscreen,inactive: 0
CCn1cc(C(=O)O)c(=O)c2cc(F)c(N3CCN(C)CC3)cc21 [Pefloxacine],neuronal differentiation score,ReNCell VM [1]; library: Prestwick,inactive: 0
same,dopaminergic neuron differentiation score,ReNCell VM [2]; library: Prestwick,inactive: 0
O=C(NC[C@@H](O)c1ccccc1)c1ccccc1 [(-)-n-benzoyl-2-hydroxy-2-phenylethylamine],neuronal differentiation score,ReNCell VM [1]; library: Natural,inactive: 0
same,dopaminergic neuron differentiation score,ReNCell VM [2]; library: Natural,inactive: 0
NC(=O)c1cc[n+](CC2=C(C(=O)O)N3C(=O)[C@@H](NC(=O)[C@@H](c4ccccc4)S(=O)(=O)[O-])[C@H]3SC2)cc1,neuronal differentiation score,ReNCell VM [1]; library: Spectrum,inactive: 0
same,dopaminergic neuron differentiation score,ReNCell VM [2]; library: Spectrum,inactive: 0
O.O.O=C([O-])CN(CCN(CC(=O)[O-])CC(=O)O)CC(=O)O.[Na+].[Na+],neuronal differentiation score,ReNCell VM [1]; library: Spectrum,inactive: 0
same,dopaminergic neuron differentiation score,ReNCell VM [2]; library: Spectrum,inactive: 0
CO/N=C(\C(=O)N[C@@H]1C(=O)N2C(C(=O)O)=C(COC(C)=O)CS[C@H]12)c1csc(N)n1 [Cefotaxime sodium],neuronal differentiation score,ReNCell VM [1]; library: LOPAC,inactive: -1
same,dopaminergic neuron differentiation score,ReNCell VM [2]; library: LOPAC,inactive: 1
CS(=O)(=O)c1ccc(Cn2c3c(c4cc(F)cc(F)c42)CCCC3CC(=O)O)cc1 (stereo not drawn),neuronal differentiation score,ReNCell VM [1]; library: Tocriscreen,inactive: 0
same,dopaminergic neuron differentiation score,ReNCell VM [2]; library: Tocriscreen,inactive: 0
N#Cc1cc2nc(O)c(O)nc2cc1[N+](=O)[O-] [CNQX disodium],neuronal differentiation score,ReNCell VM [1]; library: LOPAC,inactive: 0
same,dopaminergic neuron differentiation score,ReNCell VM [2]; library: LOPAC,inactive: 0
O=C1CCC(N2C(=O)c3ccccc3C2=O)C(=O)N1 (stereo not drawn),neuronal differentiation score,ReNCell VM [1]; library: Spectrum,inactive: 0
same,dopaminergic neuron differentiation score,ReNCell VM [2]; library: Spectrum,inactive: 0
COc1ccc([C@@H](C)C(=O)c2ccc(O)cc2O)cc1 [angolensin (r)],neuronal differentiation score,ReNCell VM [1]; library: Natural,inactive: 0
same,dopaminergic neuron differentiation score,ReNCell VM [2]; library: Natural,inactive: 0
"CN1c2ccccc2C(O)=C(c2ccccc2)C1O (stereo not drawn) [n-methyl-2,4-dihydroxy-3-phenylquinoline]",neuronal differentiation score,ReNCell VM [1]; library: Natural,inactive: 0
same,dopaminergic neuron differentiation score,ReNCell VM [2]; library: Natural,inactive: 0
C[C@]12CC[C@@H]3c4ccc(O)cc4CC[C@H]3[C@@H]1CC[C@@H]2O [beta-Estradiol],neuronal differentiation score,ReNCell VM [1]; library: LOPAC,inactive: 0
same,dopaminergic neuron differentiation score,ReNCell VM [2]; library: LOPAC,inactive: 0
CC(COc1ccccc1)NC(C)C(O)c1ccc(O)cc1 (stereo not drawn) [Isoxsuprine hydrochloride],neuronal differentiation score,ReNCell VM [1]; library: Prestwick,inactive: 0
same,dopaminergic neuron differentiation score,ReNCell VM [2]; library: Prestwick,inactive: 0
COc1ccc(C(=O)c2ccccc2)c(O)c1,neuronal differentiation score,ReNCell VM [1]; library: Spectrum,inactive: 0
same,dopaminergic neuron differentiation score,ReNCell VM [2]; library: Spectrum,inactive: 0

# A second format for part of the listing above:
smiles	measurement	setting	value
O=C(O)[C@@H]1CCCN1 [L-Proline]	neuronal differentiation score	ReNCell VM [1]; library: Phytochemical	inactive: 0
NC(=O)N/N=C/c1ccc(Oc2ccc(F)cc2)cc1	neuronal differentiation score	ReNCell VM [1]; library: Tocriscreen	inactive: 0
C[C@H]1O[C@@H](O[C@H]2[C@@H](O)C[C@H](O[C@H]3[C@@H](O)C[C@H](O[C@H]4CC[C@@]5(C)[C@H](CC[C@@H]6[C@@H]5CC[C@]5(C)[C@@H](C7=CC(=O)OC7)CC[C@]65O)C4)O[C@@H]3C)O[C@@H]2C)C[C@H](O)[C@@H]1O	dopaminergic neuron differentiation score	ReNCell VM [2]; library: Spectrum	inactive: 0
N#C/C(=C\c1ccc(O)c(O)c1)C(=O)Nc1ccccc1	dopaminergic neuron differentiation score	ReNCell VM [2]; library: Tocriscreen	inactive: 1
CO/N=C(\C(=O)N[C@@H]1C(=O)N2C(C(=O)O)=C(COC(C)=O)CS[C@H]12)c1csc(N)n1 [Cefotaxime sodium]	dopaminergic neuron differentiation score	ReNCell VM [2]; library: LOPAC	inactive: 1
